Reference: PMC7897482
These are yes or no findings as the source states them, for the method shown. Binding seen in cells or lysates may run through a third protein. Some results given as binding are weak or reduced against the parent protein; the word gives no strength. Tags and fused reporters may be left off the sequences shown.

Amino acid sequences for entries named in this document (tags omitted).
UniProt Q24297: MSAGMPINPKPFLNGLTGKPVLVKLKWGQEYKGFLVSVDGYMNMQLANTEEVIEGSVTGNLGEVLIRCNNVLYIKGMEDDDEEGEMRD

T1: SmD3::HA (transgenic UAS-SmD3::3xHA) (Drosophila melanogaster) (UniProt O44437)
T1 sequence: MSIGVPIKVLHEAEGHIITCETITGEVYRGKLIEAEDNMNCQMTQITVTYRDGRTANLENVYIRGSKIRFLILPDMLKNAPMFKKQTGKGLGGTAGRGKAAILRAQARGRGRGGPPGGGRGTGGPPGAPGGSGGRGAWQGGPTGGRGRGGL

T2: Flag::SmD3 (Drosophila melanogaster) (UniProt O44437)
T2 sequence: T1 sequence

B1: endogenous Ecd (wing imaginal discs) (protein, UniProt Q9W032 1-684)
chain: MSKIPGSNLEFVREEDFVEYYIFPKIPDNVQDEGALRKLMLQIRNEISAIVREKSLERSYLWHKDEFQLQVRLGGAEERLLNEETNPEEEAELGDLPPHFHGVTHYGDNISDEWFVVYLLTEITRARGDCIARVSDSDGEFLLIEAADALPDWASPETCEQRVYLVGGHLQLLQNSAASSQDKPLTMAMAVQRIRMNPTLYRCSQEIQSCIDARLKEYQIAQPHFSIHRQVLELPHSAAQLLKQKPRLLSSAVRAFCERDSLDIKALRTMRYFPPEATRVRTNVRFTRCLYAMLSHQQYLPEKRLGWHLTDPVSEPERYKEQLLGLKLASGLEILATQAKRVEGQQLEDLPAWRSYLRSLLSKGYFRDNIEGSAEYQELLNKAKVYFRGNQERFRTASRAGAEILDLLLHPAEAASEELRDEENNLQPSDSDEWLNISAEDLDSMLQDRYGPKKLYKPNGQMNAEEFTKQLAEFLDRQSNYEGIEHRGLEEPELDSDDDEPPPQANGSTGLTAKVKKNPSMRKACQRNSVIQPEEPDSTHVRNFLDFVIPEDNWDSTSEMSDYADEDDMESNLNALSGGGSVFPLDRQIQSYMEQMDRELAQTSVGKSFHGKKKTAPQADEDDFDDIEDFEPININVNTLRNMMDSYQSQVGGAGPVSNLFSAMGVGMSAVEDKEQKDISESAV
B2: Myc::Ecd^wt (Ecdysoneless, wild type) (protein, UniProt Q9W032 1-684)
chain: B1 chain

How the values were obtained:
[1] = molecular target: T1, SmD3::HA (transgenic UAS-SmD3::3xHA) (Drosophila melanogaster); experiment: co-IP; SmD3::HA precipitated with anti-HA antibody-coupled magnetic beads from wing imaginal disc lysates; endogenous Prp8 and Ecd detected by western blot; compared: ecd RNAi, prp8 RNAi, Prp8 overexpression, RNase A treatment of the lysate; control: discs expressing RFP only
[2] = molecular target: tagged SmF (Drosophila melanogaster) (UniProt Q24297); experiment: co-IP; lysates of transfected Drosophila S2 cells; proteins pulled down by anti-Flag magnetic beads (Flag::SmD3 as bait), overnight at 4°C, five washes in lysis buffer with 150-250 mM NaCl; western blot
[3] = molecular target: T2, Flag::SmD3 (Drosophila melanogaster); experiment: as above

Row | binding [1] | binding [2] | binding [3] | Binder
1 | binds |  |  | B1
2 |  | no binding | binds | B2
